Experimental data as given in US20250288536A1, “PROTEIN PARTICLES INCLUDING AN ACTIVE AGENT AND METHODS OF MAKING AND USING THE SAME” (Dairy Mangement Inc., priority 2022, published 2025).

Test: Tryptophan fluorescence spectra analysis
Type: physicochemical
Settings: pH 11, excitation 295 nm

Compound: N[C@@H](Cc1c[nH]c2ccccc12)C(=O)O [Trp, tryptophan]
- increase of emission intensity when HPH is applied: ~45 fold

Compound: α-lactalbumin
- increase of emission intensity when HPH is applied: about 50 fold
